These results are taken from article PMC4909299.

These are yes or no findings as the source states them, for the method shown. For part of these data: Binding calls can cover weak binding; strength is not graded here.

What all share (assay): two-hybrid; Dbl2 fused to the GAL4 activation domain (prey), Rad51, Fbh1 or Fml1 fused to the GAL4 DNA-binding domain (bait); S. cerevisiae PJ69-4a; growth on SD plates lacking histidine or adenine
One test deals with T1, Fbh1 (S. pombe) (UniProt Q9USU3).
T1 sequence: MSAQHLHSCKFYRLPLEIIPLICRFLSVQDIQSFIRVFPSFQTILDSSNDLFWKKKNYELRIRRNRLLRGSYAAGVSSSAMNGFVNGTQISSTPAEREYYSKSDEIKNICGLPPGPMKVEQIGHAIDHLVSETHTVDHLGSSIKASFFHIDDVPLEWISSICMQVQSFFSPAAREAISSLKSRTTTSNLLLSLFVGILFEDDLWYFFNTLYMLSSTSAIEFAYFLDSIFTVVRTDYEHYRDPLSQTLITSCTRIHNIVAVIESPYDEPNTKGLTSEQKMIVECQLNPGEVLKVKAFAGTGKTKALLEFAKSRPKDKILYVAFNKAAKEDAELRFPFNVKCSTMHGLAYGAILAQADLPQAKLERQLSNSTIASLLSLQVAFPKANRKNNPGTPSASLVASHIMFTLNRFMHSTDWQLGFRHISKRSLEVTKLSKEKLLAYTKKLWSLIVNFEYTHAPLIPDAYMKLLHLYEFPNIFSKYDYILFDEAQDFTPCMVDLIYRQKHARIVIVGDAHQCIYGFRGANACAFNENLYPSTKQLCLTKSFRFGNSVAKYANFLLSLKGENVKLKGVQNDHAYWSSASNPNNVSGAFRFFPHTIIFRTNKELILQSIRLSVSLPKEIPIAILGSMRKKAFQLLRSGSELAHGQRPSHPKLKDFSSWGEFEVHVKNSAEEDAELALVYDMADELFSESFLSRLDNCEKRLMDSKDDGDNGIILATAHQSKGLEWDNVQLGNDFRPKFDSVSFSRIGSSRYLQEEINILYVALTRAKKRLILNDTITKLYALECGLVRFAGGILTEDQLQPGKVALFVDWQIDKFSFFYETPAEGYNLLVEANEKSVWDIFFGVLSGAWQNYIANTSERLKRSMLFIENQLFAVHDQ

For another test, the target named is T2, Fml1 (S. pombe) (UniProt Q9UT23).
T2 sequence: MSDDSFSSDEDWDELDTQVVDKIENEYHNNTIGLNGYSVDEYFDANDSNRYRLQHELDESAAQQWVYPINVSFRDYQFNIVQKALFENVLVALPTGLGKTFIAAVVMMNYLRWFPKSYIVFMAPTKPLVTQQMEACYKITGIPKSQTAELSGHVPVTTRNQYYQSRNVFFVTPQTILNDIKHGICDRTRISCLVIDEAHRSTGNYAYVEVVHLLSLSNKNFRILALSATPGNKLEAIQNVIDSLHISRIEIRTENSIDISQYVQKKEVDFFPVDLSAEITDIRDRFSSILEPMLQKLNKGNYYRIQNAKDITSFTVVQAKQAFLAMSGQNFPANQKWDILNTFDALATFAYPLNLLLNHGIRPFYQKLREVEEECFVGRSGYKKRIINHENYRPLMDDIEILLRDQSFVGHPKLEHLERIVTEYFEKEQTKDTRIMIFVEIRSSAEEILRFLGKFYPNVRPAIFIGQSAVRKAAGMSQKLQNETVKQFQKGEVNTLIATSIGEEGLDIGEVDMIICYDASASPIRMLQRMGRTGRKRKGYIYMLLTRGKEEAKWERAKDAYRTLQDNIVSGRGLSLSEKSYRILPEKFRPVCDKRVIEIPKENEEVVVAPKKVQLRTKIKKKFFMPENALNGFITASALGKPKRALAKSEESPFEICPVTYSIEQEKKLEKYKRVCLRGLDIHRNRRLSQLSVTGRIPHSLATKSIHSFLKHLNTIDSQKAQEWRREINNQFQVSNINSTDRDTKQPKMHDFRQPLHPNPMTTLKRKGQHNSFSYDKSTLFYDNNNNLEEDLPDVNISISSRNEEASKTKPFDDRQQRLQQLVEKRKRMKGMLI

The target of the next test is T3, Rad51 (S. pombe) (UniProt P36601).
T3 sequence: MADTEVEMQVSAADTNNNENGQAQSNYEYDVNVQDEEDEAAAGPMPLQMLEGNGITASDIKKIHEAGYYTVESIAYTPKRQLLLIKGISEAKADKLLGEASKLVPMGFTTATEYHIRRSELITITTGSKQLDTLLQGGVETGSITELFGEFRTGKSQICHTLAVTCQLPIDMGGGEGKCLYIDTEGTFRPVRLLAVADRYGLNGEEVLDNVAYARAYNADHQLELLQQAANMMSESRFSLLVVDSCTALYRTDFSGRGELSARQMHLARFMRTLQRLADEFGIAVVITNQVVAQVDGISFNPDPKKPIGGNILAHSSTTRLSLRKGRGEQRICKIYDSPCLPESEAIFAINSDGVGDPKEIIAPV

Consider Dbl2 (S. pombe), for which the values for the binding result in the test with Fbh1 (S. pombe), with Fml1 (S. pombe) and with Rad51 (S. pombe) were “no binding”, “binds weakly” and “binds”, respectively.
